Test: peptide synthesis
Conditions: for conjugation yield: conjugation step; for final HPLC purity: HPLC method B

Substance	conjugation yield	final HPLC purity	conjugation yield (from L-14a)
2-Amino-N-({[({[({2-[(1S,2S,4R,8S,9S,11S,12S,13R)-11-hydroxy-9,13-dimethyl-16-oxo-6-propyl-5,7-dioxapentacyclo[10.8.0.0^2,9.0^4,8.0^13,18]icosa-14,17-dien-8-yl]-2-oxoethoxy}methyl)carbamoyl]methyl}carbamoyl)methyl]carbamoyl}methyl)acetamide	39% yield	–	–
COT-SGGGG-NHCH2-Bud	–	98%	14% yield from L-14a
COT-KGGGG-NHCH2-Bud	–	99%	76% yield from L-14a
